The list shows a part of the results. Single values are uncertain, as repeats are few or missing.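 The apoptosis fraction was the count of cleaved-PARP antibody-stained nuclei relative to all DNA-stained nuclei, imaged in 1,536-well plates. Screening doses were set so most cells survived, and baseline and induced cleaved-PARP levels vary greatly across cell lines.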
Key:
Assay in all cases: cleaved PARP positive nuclei fraction relative to DMSO control; melanoma cells; higher = more apoptosis
Settings in all cases: library dose: low library concentration; 72 h
501Mel = test system: 501Mel
A101D = test system: A101D
A2058 = test system: A2058
C32 = test system: C32
CBRC008 = test system: CBRC008 (line from a melanoma biopsy)
CBRC014 = test system: CBRC014 (line from a melanoma biopsy)
CBRC016 = test system: CBRC016 (line from a melanoma biopsy)
CBRC017 = test system: CBRC017 (line from a melanoma biopsy)
COLO792 = test system: COLO792
COLO800 = test system: COLO800
COLO829 = test system: COLO829
G361 = test system: G361
IPC-298 = test system: IPC-298
IST-MEL1 = test system: IST-MEL1
LB2518-MEL = test system: LB2518-MEL
LOXIMVI = test system: LOXIMVI
A375 = test system: A375
CBRC013 = test system: CBRC013 (line from a melanoma biopsy)
MEL-HO = test system: MEL-HO

SMILES	cleaved PARP positive nuclei fraction (501Mel)	cleaved PARP positive nuclei fraction (A101D)	cleaved PARP positive nuclei fraction (A2058)	cleaved PARP positive nuclei fraction (C32)	cleaved PARP positive nuclei fraction (CBRC008)	cleaved PARP positive nuclei fraction (CBRC014)	cleaved PARP positive nuclei fraction (CBRC016)	cleaved PARP positive nuclei fraction (CBRC017)	cleaved PARP positive nuclei fraction (COLO792)	cleaved PARP positive nuclei fraction (COLO800)	cleaved PARP positive nuclei fraction (COLO829)	cleaved PARP positive nuclei fraction (G361)	cleaved PARP positive nuclei fraction (IPC-298)	cleaved PARP positive nuclei fraction (IST-MEL1)	cleaved PARP positive nuclei fraction (LB2518-MEL)	cleaved PARP positive nuclei fraction (LOXIMVI)	cleaved PARP positive nuclei fraction (A375)	cleaved PARP positive nuclei fraction (CBRC013)	cleaved PARP positive nuclei fraction (MEL-HO)
CC(C)C[C@H](NC(=O)[C@H](Cc1ccccc1)NC(=O)c1cnccn1)B(O)O [Bortezomib] + COc1ccc(COc2ccc(Cc3cnc(N)nc3N)cc2OC)cc1 [GW2580] (first compound 0.001 µM, partner dose 1 µM)	66.8%	44%	79.1%	349%	871%	166%	137%	102%	145%	139%	145%	255%	67.7%	165%	70.7%	52.2%	–	–	–
Cc1cc(Nc2cc(N3CCN(C)CC3)nc(/C=C/c3ccccc3)n2)n[nH]1 + Cc1cc([N+](=O)[O-])ccc1NS(=O)(=O)c1cc(Cl)ccc1Cl [FH535] (first compound 0.04 µM, partner dose 1 µM)	69.4%	31.9%	108%	42.3%	245%	123%	630%	217%	124%	179%	52.1%	112%	47.2%	119%	86.4%	170%	–	–	–
CC(C)C[C@H](NC(=O)[C@H](Cc1ccccc1)NC(=O)c1cnccn1)B(O)O [Bortezomib] + Oc1nc(-c2ccc(C(F)(F)F)cc2)nc2c1CSCC2 [XAV939] (first compound 0.001 µM, partner dose 2 µM)	65.5%	29.8%	139%	126%	234%	87.4%	39.6%	102%	108%	103%	98.9%	223%	47.6%	68.8%	300%	128%	–	–	–
CN1CCN(c2ccc3nc(-c4c(N)c5c(F)cccc5[nH]c4=O)[nH]c3c2)CC1 [Dovitinib] + COc1ccc(-c2ccc3c(N4CCOCC4)nc(N4C[C@@H](C)O[C@@H](C)C4)nc3n2)cc1CO [KU0063794] (first compound 0.1 µM, partner dose 0.02 µM)	60.7%	23.5%	148%	72.6%	130%	82.4%	48.2%	69.7%	86.8%	163%	93.2%	40%	92.6%	68.2%	97.7%	49.4%	–	–	–
CN1CCN(c2ccc3nc(-c4c(N)c5c(F)cccc5[nH]c4=O)[nH]c3c2)CC1 [Dovitinib] + COc1ccc(COc2ccc(Cc3cnc(N)nc3N)cc2OC)cc1 [GW2580] (first compound 0.1 µM, partner dose 1 µM)	98.6%	25%	165%	158%	213%	88.8%	66.8%	92.2%	113%	28.4%	117%	85.2%	46.6%	102%	77.1%	108%	–	–	–
CN1CCN(c2ccc3nc(-c4c(N)c5c(F)cccc5[nH]c4=O)[nH]c3c2)CC1 [Dovitinib] + COC(=O)c1sccc1S(=O)(=O)Nc1ccc(Nc2ccccc2)cc1OC [GSK0660] (first compound 0.1 µM, partner dose 1 µM)	213%	44.1%	141%	134%	69.3%	94.2%	39.8%	102%	165%	104%	83%	109%	88.3%	183%	75.6%	170%	–	–	–
Cn1c(=O)n(-c2ccc(C(C)(C)C#N)cc2)c2c3cc(-c4cnc5ccccc5c4)ccc3ncc21 + Oc1cc(-c2nc(-c3ccccc3)[nH]c2-c2ccncc2)ccc1Cl [L779450] (first compound 0.004 µM, partner dose 0.2 µM)	92.6%	29.8%	80.1%	179%	51.5%	109%	34.9%	108%	106%	138%	82.6%	161%	124%	149%	99.1%	400%	–	–	–
Cc1cc(Nc2cc(N3CCN(C)CC3)nc(/C=C/c3ccccc3)n2)n[nH]1 + O=c1cc(-c2cccc3c2Sc2ccccc2S3)oc(N2CCOCC2)c1 [KU55933] (first compound 0.04 µM, partner dose 1 µM)	70.6%	19%	75.6%	171%	84.7%	71.3%	66.7%	81.3%	91.1%	43.8%	62.1%	96.2%	48%	90.9%	68.3%	86.5%	–	–	–
O=C(O)c1ccc2c(c1)nc(Nc1cccc(Cl)c1)c1ccncc12 + N#Cc1c(O)c2c(-c3ccc(-c4ccccc4O)cc3)csc2[nH]c1=O [A769662] (first compound 0.4 µM, partner dose 2 µM)	109%	55.9%	76.1%	48.7%	80.3%	190%	79.7%	103%	133%	42.4%	149%	183%	44.1%	84.6%	127%	64.4%	–	–	–
CO[C@H]1C[C@@H]2CC[C@@H](C)[C@@](O)(O2)C(=O)C(=O)N2CCCC[C@H]2C(=O)O[C@H]([C@H](C)C[C@@H]2CC[C@@H](OCCO)[C@H](OC)C2)CC(=O)[C@H](C)/C=C(\C)[C@@H](O)[C@@H](OC)C(=O)[C@H](C)C[C@H](C)/C=C/C=C/C=C/1C [everolimus] + Oc1cc(-c2nc(-c3ccccc3)[nH]c2-c2ccncc2)ccc1Cl [L779450] (first compound 0.02 µM, partner dose 0.2 µM)	124%	15.1%	145%	93.9%	187%	92.8%	89.6%	81.3%	115%	88.8%	73%	82.9%	219%	80%	108%	57.2%	–	–	–
Nc1ccn([C@@H]2O[C@H](CO)[C@@H](O)C2(F)F)c(=O)n1 [gemcitabine] + COc1cc(N2CCC(N3CCN(C)CC3)CC2)ccc1Nc1ncc(Cl)c(Nc2ccccc2S(=O)(=O)C(C)C)n1 [NVP-TAE684] (first compound 0.0004 µM, partner dose 0.08 µM)	62.4%	18.1%	291%	131%	285%	149%	88.2%	110%	140%	99.4%	62.2%	54.6%	147%	231%	34.3%	33.9%	–	–	–
C[C@@H](Oc1cc(-c2cnn(C3CCNCC3)c2)cnc1N)c1c(Cl)ccc(F)c1Cl [Crizotinib] + COc1ccc(-c2ccc3c(N4CCOCC4)nc(N4C[C@@H](C)O[C@@H](C)C4)nc3n2)cc1CO [KU0063794] (first compound 0.2 µM, partner dose 0.02 µM)	69%	38.4%	170%	126%	88.1%	96.4%	26.7%	114%	72.8%	208%	60.7%	90.5%	102%	213%	69.3%	102%	–	–	–
CCCS(=O)(=O)Nc1ccc(F)c(C(=O)c2c[nH]c3ncc(Cl)cc23)c1F + COc1ccc(COc2ccc(Cc3cnc(N)nc3N)cc2OC)cc1 [GW2580] (first compound 0.08 µM, partner dose 1 µM)	52.4%	19.8%	140%	91.3%	36.5%	132%	49.5%	93.6%	80%	66.7%	295%	181%	50.3%	54.8%	153%	61.5%	–	–	–
Nc1nc(F)nc2c1ncn2[C@@H]1O[C@H](CO)[C@@H](O)[C@@H]1O [fludarabine] + O=C1NC(=O)/C(=C/c2ccc(-c3ccc(F)cc3O)o2)S1 [AS252424] (first compound 0.2 µM, partner dose 1 µM)	1770%	27.7%	171%	163%	137%	84%	71.1%	89.9%	207%	88.7%	146%	107%	94%	45.7%	17.4%	51.5%	–	–	–
CCCS(=O)(=O)Nc1ccc(F)c(C(=O)c2c[nH]c3ncc(Cl)cc23)c1F + O=c1cc(-c2cccc3c2Sc2ccccc2S3)oc(N2CCOCC2)c1 [KU55933] (first compound 0.08 µM, partner dose 1 µM)	343%	36.7%	85.7%	110%	18.8%	127%	81.1%	81.8%	99.3%	42.3%	86.7%	186%	94.1%	21.7%	34.1%	61.7%	–	–	–
Nc1ccn([C@@H]2O[C@H](CO)[C@@H](O)C2(F)F)c(=O)n1 [gemcitabine] + O=C1NC(=O)/C(=C/c2ccc(-c3ccc(F)cc3O)o2)S1 [AS252424] (first compound 0.0004 µM, partner dose 1 µM)	76.8%	23.3%	59.1%	146%	81.6%	124%	226%	133%	99.7%	73.5%	63%	151%	108%	292%	52.3%	72%	–	–	–
Cc1cc(Nc2cc(N3CCN(C)CC3)nc(/C=C/c3ccccc3)n2)n[nH]1 + CN(NC(=O)CC(=O)NN(C)C(=S)c1ccccc1)C(=S)c1ccccc1 [STA4783] (first compound 0.04 µM, partner dose 0.006 µM)	–	81.3%	85.6%	55.8%	2040%	866%	189%	391%	90.8%	150%	247%	89.5%	96.9%	73.3%	–	51.8%	1320%	141%	74.8%
CC(C)C[C@H](NC(=O)[C@H](Cc1ccccc1)NC(=O)c1cnccn1)B(O)O [Bortezomib] + c1cc(-c2cnn3cc(-c4ccc(OCCN5CCCCC5)cc4)cnc23)ccn1 [Dorsomorphin] (first compound 0.001 µM, partner dose 0.4 µM)	145%	148%	118%	113%	242%	236%	361%	130%	92.6%	46.2%	82.1%	2030%	238%	204%	415%	91.7%	–	–	–
CO[C@H]1C[C@@H]2CC[C@@H](C)[C@@](O)(O2)C(=O)C(=O)N2CCCC[C@H]2C(=O)O[C@H]([C@H](C)C[C@@H]2CC[C@@H](OCCO)[C@H](OC)C2)CC(=O)[C@H](C)/C=C(\C)[C@@H](O)[C@@H](OC)C(=O)[C@H](C)C[C@H](C)/C=C/C=C/C=C/1C [everolimus] + CN(C)S(=O)(=O)c1ccc2c(c1)/C(=C/c1cc3c([nH]1)CCCC3)C(=O)N2 [SU6656] (first compound 0.02 µM, partner dose 0.4 µM)	–	102%	198%	106%	197%	98.3%	31.4%	76.3%	94%	61.5%	193%	99.7%	60.3%	124%	–	321%	167%	60.1%	532%

Some entries already given, showing only cleaved PARP positive nuclei fraction (A2058) and cleaved PARP positive nuclei fraction (501Mel).
SMILES,cleaved PARP positive nuclei fraction (A2058),cleaved PARP positive nuclei fraction (501Mel)
"CN1CCN(c2ccc3nc(-c4c(N)c5c(F)cccc5[nH]c4=O)[nH]c3c2)CC1 [Dovitinib] + COc1ccc(COc2ccc(Cc3cnc(N)nc3N)cc2OC)cc1 [GW2580] (first compound 0.1 µM, partner dose 1 µM)",165%,98.6%
"CN1CCN(c2ccc3nc(-c4c(N)c5c(F)cccc5[nH]c4=O)[nH]c3c2)CC1 [Dovitinib] + COC(=O)c1sccc1S(=O)(=O)Nc1ccc(Nc2ccccc2)cc1OC [GSK0660] (first compound 0.1 µM, partner dose 1 µM)",141%,213%
